Among all 1,400 compounds or so, about 45 (3%) were called active.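 The calls were made as follows: active = half-maximal dose of signal decrease from fit no higher than ten times the top valid tested dose; inconclusive = fit invalid, or curve flat with 30 to 70% inhibition; inactive = the rest.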 The list shows a part of the results. Potency and affinity values are given separately.

The chains behind the UniProt entries cited, without tags or fusion partners. Where a name states a change or a piece, a line headed by the entry shows the natural chain unless it says otherwise.
UniProt O75164: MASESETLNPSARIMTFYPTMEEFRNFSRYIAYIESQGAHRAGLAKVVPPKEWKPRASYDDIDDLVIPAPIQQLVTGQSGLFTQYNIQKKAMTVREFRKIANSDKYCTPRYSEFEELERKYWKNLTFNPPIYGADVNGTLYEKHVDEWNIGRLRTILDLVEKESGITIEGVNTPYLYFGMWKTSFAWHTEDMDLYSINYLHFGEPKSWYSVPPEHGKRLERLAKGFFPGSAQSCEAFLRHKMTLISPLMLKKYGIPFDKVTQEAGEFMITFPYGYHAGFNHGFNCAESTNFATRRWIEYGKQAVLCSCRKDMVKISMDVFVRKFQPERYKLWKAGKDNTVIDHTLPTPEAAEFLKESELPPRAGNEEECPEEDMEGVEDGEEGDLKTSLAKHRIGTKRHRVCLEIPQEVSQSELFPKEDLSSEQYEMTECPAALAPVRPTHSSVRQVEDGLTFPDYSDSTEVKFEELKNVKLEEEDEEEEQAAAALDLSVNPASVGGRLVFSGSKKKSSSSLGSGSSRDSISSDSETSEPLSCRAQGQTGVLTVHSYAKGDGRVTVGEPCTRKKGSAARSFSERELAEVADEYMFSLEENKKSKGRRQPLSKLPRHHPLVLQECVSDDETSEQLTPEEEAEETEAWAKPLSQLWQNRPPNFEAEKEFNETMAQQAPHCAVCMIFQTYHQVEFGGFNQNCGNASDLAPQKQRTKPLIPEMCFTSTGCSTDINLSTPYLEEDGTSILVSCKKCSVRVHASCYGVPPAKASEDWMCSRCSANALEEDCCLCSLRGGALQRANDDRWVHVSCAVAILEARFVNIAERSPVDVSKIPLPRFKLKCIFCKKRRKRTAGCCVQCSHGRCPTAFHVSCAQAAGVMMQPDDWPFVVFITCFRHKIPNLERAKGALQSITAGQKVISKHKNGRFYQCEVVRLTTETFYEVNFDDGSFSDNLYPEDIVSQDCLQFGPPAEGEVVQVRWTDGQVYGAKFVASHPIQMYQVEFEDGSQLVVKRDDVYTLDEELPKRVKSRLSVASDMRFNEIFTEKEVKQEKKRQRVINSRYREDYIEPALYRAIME

For the experiment, the target named is Lysine-specific demethylase 4A (Homo sapiens) (UniProt O75164). Kind of experiment: inhibition of JMJD2A H3K9me3 demethylation – biochemical, DELFIA europium, cherry-picked samples, selectivity assay for GASC-1 inhibitor project, dose response (AID 488840).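 Also: europium signal reports the dimethyl H3K9 product detected by antibody so inhibitors lower it; 0% = median of neutral control wells and -100% = median of positive control wells.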 To be noted: GST-JMJD2A(1-420) H3K9me3 demethylation; at 6 µM (top of the series) unless noted.
On to `CC(C)N(Cc1ccccc1)C(=O)COC(=O)c1ccc2c(c1)OCCO2`, for which the activity change, negative = inhibition was inactive: -4.82%.
Take `CC(C)(C)n1nc2c(c1NC(=O)c1ccc(Br)o1)CS(=O)C2` (stereo not given): the activity change, negative = inhibition was inactive: -1.29%.
For the compound `COc1ccc(NC(=S)N2CCC(C(=O)N3CCCCCC3)CC2)cc1`, the activity change, negative = inhibition is inactive: 0.103%.
On to `COc1cccc(/C=C/C(=O)OCC(=O)Nc2cccc(S(=O)(=O)N(C)C)c2)c1`, for which the activity change, negative = inhibition was inactive: -5.44%.
The same measure for `CCc1ccc2oc(=O)cc(CN3CCOCC3)c2c1`: inactive: -6.34%; for `Cn1c(=O)[nH]c(=O)c2c1nc(NCCCO)n2Cc1ccc(F)cc1`: inactive: 1.84%.
For the compound `CCc1ccc(S(=O)(=O)Nc2nnc(N)s2)cc1`, the activity change, negative = inhibition is inactive: 4.57%.
The same measure for `N/C(=N\NC(=O)c1ccc(Cl)cc1)c1cnccn1`: inactive: -2.11%; for `CCCCN(C)C(=O)CCC(=O)NNc1nc2ccccc2c2nc(C)nn12`: inactive: -0.895%.
As for `O=C(CSc1ncccn1)Nc1ccc(S(=O)(=O)N2CCCCC2)cc1`, the activity change, negative = inhibition was inactive: -0.0764%.
The same measure for `COc1ccc(C(CNC(=O)c2oc3cc(Br)ccc3c2C)N2CCCCC2)cc1` (stereo not given): inactive: 0.554%.
For the compound `CC(=O)Nc1cc2c(cc1NC(=O)Cn1nc(-c3ccccc3)ccc1=O)OCCO2`, the activity change, negative = inhibition is inactive: -6.25%.
In the case of `COc1ccc(Br)cc1CN(C)CC(=O)NCc1ccc(F)cc1`, the activity change, negative = inhibition was inactive: -3.07%.
Take `Cc1ccc(NC(=O)CSc2ncc(S(=O)(=O)c3ccccc3)c(=O)[nH]2)cc1C`: the activity change, negative = inhibition was inactive: -3.52%.
The same measure for `CCC(CO)Oc1cc(NC(=O)c2cccc(OC)c2)c2ncn(C(C)C)c2c1` (stereo not given): inactive: 5.07%.
Regarding `CC(C)(C)NC(=O)C1CCN(C(=O)c2ccc(Br)cc2)CC1`, the activity change, negative = inhibition was inactive: 8.98%.
For `CC(=O)C[C@@H](O)CC(=O)[C@H]1OC(=O)[C@H](C)C/C=C\Cc2ccccc21`, the activity change, negative = inhibition was inactive: -4.94%.
With `CCN(CC)CCSc1nc2ccccc2c(=S)n1-c1ccccc1`, the activity change, negative = inhibition is inactive: -2.42%.
Consider `CCc1nn2c(N3CCOCC3)cc(C)nc2c1-c1ccc(F)cc1`, for which the activity change, negative = inhibition is inactive: 1.11%.
As for `CC(=O)c1ccc(O[C@@H]2O[C@H](CO)[C@@H](O)[C@H](O)[C@H]2O)cc1`, the activity change, negative = inhibition is inactive: -4.17%.
On to `O=C(Cn1cnc2ccccc2c1=O)NCc1cccs1`, for which the activity change, negative = inhibition is inactive: 1.77%.
Consider `CCOC(=O)Cn1c(=O)cnc2ccccc21`, for which the activity change, negative = inhibition was inactive: -2.43%.
Regarding `CC(=O)Oc1ccc(NC(=O)Cc2ccccc2)c(C(=O)O)c1`, the activity change, negative = inhibition was inactive: -0.611%.
With `CC(C)CCN(C(=O)C1=COCCO1)c1c(N)n(Cc2ccccc2)c(=O)[nH]c1=O`, the activity change, negative = inhibition is inactive: -0.136%.
For the compound `COCCn1nnnc1C(c1ccccc1)N1CCN(C(=O)c2ccco2)CC1` (stereo not given), the activity change, negative = inhibition was inactive: -1.64%.

These data come from PubChem BioAssay AID488840 (Broad Institute, 2010).
